Reference: PubChem BioAssay AID1487 (National Center for Advancing Translational Sciences (NCATS), 2009)
This is one part of the list. These are further read-outs of the screen, such as a control signal, another cell line or another target. No call is given for them. Most of these compounds were active or inconclusive in the main read-out, so they are no random draw. The note in brackets gives the kind of curve behind each potency; many fits are weak.

Assay: qHTS Assay for Modulators of Lamin A Splicing
Conditions: HeLa LMNA splicing GFP/RFP minigene ratio, 48 h
Procedure, shortened: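 Read-out is the ratio of GFP to DsRed2 object intensity, acquired by 488 nm laser-scanning cytometry on HeLa lamin A-EGFP minigene reporter cells. Compound incubation 48 hrs at 37 °C in Opti-MEM with 2% FBS; DMSO 0.5% final.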

[1] = measured here: RFP viability control channel
[2] = measured here: GFP splicing reporter channel

SMILES | AC50 [1] | AC50 [2]
O=C1N/C(=N\N=C\c2ccco2)SC1Cc1ccc(F)cc1 (stereo not drawn) | 3.98 µM [falling, single point] | –
COc1ccc(CCNC(=O)c2ccc(CN3CCC(Cc4ccccc4)CC3)cc2)cc1OC | 35.5 µM [rising, single point] | 17.8 µM [rising, single point]
COc1ccc(-c2noc(CCC(=O)N3CCN(c4cc(C)ccc4C)CC3)n2)cc1 | 35.5 µM [rising, single point] | –
COc1ccc(N2CCN(CCCNC(=O)CN3CCN(Cc4ccccc4C)C3=O)CC2)cc1 | 35.5 µM [rising, single point] | –
O=C(Nc1cccc(-c2nnn(CC(=O)N3CCc4ccccc4C3)n2)c1)C1CCC1 | 11.2 µM [rising, single point] | –
COc1ccc(-c2ccc(NS(=O)(=O)c3ccc(OC)c(OC)c3)cc2)nn1 | – | 35.5 µM [falling, partial curve, poor fit]
Cc1scc2c1N(C(=O)CN1CCN(C)CC1)c1ccccc1NC2=O | 14.1 µM [falling, single point] | 17.8 µM [falling, single point]
CCOc1ccc(N(C)S(=O)(=O)c2ccc3[nH]cc(C(=O)NCCOC)c(=O)c3c2)cc1 | 11.2 µM [rising, partial curve, poor fit] | 0.02 µM [rising, full curve, poor fit]
COc1cccc(NS(=O)(=O)c2ccc(S(=O)(=O)N3CCOCC3)cc2)c1 | 0.00891 µM [rising, full curve, poor fit] | –
COc1cccc(N2CCN(c3ncnc4c3cnn4-c3ccc(C)cc3C)CC2)c1 | 3.55 µM [rising, partial curve] | –
Cc1csc(NC(=O)c2cc(-c3ccccc3)nc3ccccc23)n1 | 22.4 µM [rising, single point] | –
CCN(CC)c1nc(Oc2ccc(=O)[nH]n2)nc(N2CCOCC2)n1 | – | 10 µM [rising, partial curve, poor fit]
Cn1c(N/N=C\c2cccc(O)c2)cc(=O)n(C)c1=O | – | 12.6 µM [falling, partial curve, poor fit]
CCOC(=O)N1CCC(NC(=O)c2ccc(OC)c(CN3CC(=O)N4CCCC4C3=O)c2)CC1 (stereo not drawn) | 3.55 µM [rising, single point] | –
O=C(NNC(=O)C1COc2ccccc2O1)c1cccc([N+](=O)[O-])c1 (stereo not drawn) | – | 35.5 µM [rising, partial curve, poor fit]
Cc1noc(NC(=O)c2cccc(C(F)(F)F)c2)c1Cl | 0.178 µM [falling, full curve, poor fit] | 0.141 µM [falling, full curve, poor fit]
CN(C)c1ccc(C(CNC(=O)c2ccccc2)N2CCc3ccccc32)cc1 (stereo not drawn) | – | 35.5 µM [falling, single point]
Cc1cc(=O)oc(C)c1C(=O)OC(C(=O)c1ccccc1)c1ccccc1 (stereo not drawn) | 25.1 µM [rising, single point] | 17.8 µM [rising, single point]
COc1cccc(Cn2cnc3c(NS(=O)(=O)c4cc(Cl)ccc4Cl)c(C)c(C)cc32)c1 | 12.6 µM [rising, single point] | –
O=C(Cn1c(SCC(=O)Nc2ccc(F)cc2)nc2ccccc21)NCc1ccc(F)cc1 | 14.1 µM [falling, single point] | –
Cc1cc(Nc2ccccc2)nc(NCc2ccccc2)n1 | 11.2 µM [rising, partial curve] | –
CC(NC(=O)CCl)c1ccc(Cl)c(Cl)c1 (stereo not drawn) | 3.55 µM [falling, partial curve, poor fit] | –
O=c1c2cc(NC(=S)NCc3cccnc3)ccc2nc2n1CCCCC2 | 0.398 µM [falling, full curve, poor fit] | 4.47 µM [falling, partial curve, poor fit]
O=C(N/N=C/c1ccccn1)c1ccc(N/N=C/c2ccccn2)cc1 | 10 µM [rising, partial curve] | –
O=c1c([N+](=O)[O-])c(N2CCCC2)c2ccccc2n1-c1ccccc1 | 31.6 µM [falling, partial curve] | –
Cc1ccc(Cl)cc1NC(=O)c1cnc(N2CCCCC2)c2ccccc12 | 10 µM [falling, partial curve, poor fit] | –
CCCC(=O)NCC1(N(C)C)CCCCC1 | 0.00447 µM [falling, full curve, poor fit] | –
CC(=O)Oc1ccc(C(=O)[C@H]2[C@H]3C(=O)N(c4ccc(C)cc4)C(=O)[C@H]3[C@@H]3C=CC=NN32)cc1 | 0.178 µM [rising, full curve, poor fit] | 0.126 µM [rising, full curve, poor fit]

SMILES | AC50 [1] | AC50 [2]
CCCCSc1cnn(-c2ccccc2)c(=O)c1SCCCC | 31.6 µM [rising, single point] | 15.8 µM [rising, single point]
CCOC(=O)CN(C(=O)CSc1nnc(-c2ccc(OC)c(OC)c2)o1)c1ccccc1 | 11.2 µM [rising, partial curve, poor fit] | –
Cc1ccc(S(=O)(=O)CCSc2nc(C)cc(C(F)(F)F)c2C#N)cc1 | 35.5 µM [falling, single point] | –
O=C(CN1CCOCC1)N/N=C/c1ccco1 | 0.631 µM [falling, full curve, poor fit] | 0.0224 µM [falling, full curve, poor fit]
COC(=O)C1=CN(CC2CCCO2)C=C(C(=O)OC)C1c1cc(OC)c(OC)c(OC)c1 (stereo not drawn) | – | 11.2 µM [rising, single point]
CCN1CCN(c2ncc3c(n2)CCN(Cc2cc(F)cc(F)c2)C3)CC1 | 1.26 µM [rising, full curve, poor fit] | –
O=C(N[C@@H](Cc1ccccc1)C(=O)CCl)OCc1ccccc1 | 1.78 µM [falling, full curve] | 2 µM [falling, full curve]
COc1ccc(C(=O)/C=C/C(=O)N(Cc2ccccc2OC)C(C(=O)NC2CCCCC2)c2ccncc2)c(O)c1 (stereo not drawn) | 12.6 µM [rising, partial curve, poor fit] | –
CCOC(=O)c1c(C)sc(-c2c(-c3cccc(Cl)c3)[nH]c3c2c(=O)n(C)c(=O)n3C)c1O | 7.08 µM [falling, single point] | 6.31 µM [rising, single point]
COc1ccc(NC(=O)C2=C(C)Nc3ncnn3C2c2ccc[nH]2)cc1 (stereo not drawn) | 3.98 µM [rising, full curve, poor fit] | –
CCNc1ncc2nc(CCc3ccccc3)c(=O)n(C[C@H]3CCCO3)c2n1 | 12.6 µM [falling, partial curve] | 17.8 µM [falling, partial curve]
O=C(CCCC(=O)N1CCN(c2ccccc2F)CC1)N1CCN(c2ccccc2F)CC1 | 20 µM [rising, single point] | 31.6 µM [rising, single point]
CCCn1c(CC)nc([N+](=O)[O-])c1S(=O)(=O)c1ccccc1 | 10 µM [falling, partial curve] | 7.94 µM [falling, partial curve]
COc1cc(C)ccc1OCCOCCOc1ccc(C)cc1[N+](=O)[O-] | 3.98 µM [rising, full curve, poor fit] | –
N#C/C(=C\c1ccco1)c1nc2ccccc2s1 | 22.4 µM [rising, single point] | –
O=C(CN(Cc1ccco1)C(=O)CCC(=O)Nc1nccs1)NCc1ccccc1 | 2 µM [rising, partial curve, poor fit] | –
O=C(CSc1nnc(NC(=O)c2ccccc2Cl)s1)Nc1ccc2c(c1)oc1ccccc12 | – | 0.794 µM [rising, partial curve, poor fit]
C=Cc1ccc(Cn2ccn(-c3ccc(F)c(F)c3)c(=O)c2=O)cc1 | 12.6 µM [rising, single point] | –
CCc1nnc(NC(=O)c2nc3nc(C)cc(C)n3n2)s1 | 3.16 µM [falling, partial curve, poor fit] | 3.98 µM [falling, partial curve]
COc1ccc(/C=N/NC(=O)CCn2c3ccccc3c3ccccc32)cc1O | 5.01 µM [rising, full curve] | –
CCc1ccc(NC(=O)C(=O)NCc2ccccn2)cc1 | 3.55 µM [falling, full curve, poor fit] | 5.62 µM [falling, partial curve]
Cn1c(=O)c2[nH]c(CNCc3ccccc3Cl)nc2n(C)c1=O | 35.5 µM [rising, single point] | –
CCCCCCCCNC(=O)/C(C#N)=C/c1ccccc1[N+](=O)[O-] | 35.5 µM [falling, single point] | 35.5 µM [falling, single point]
COc1cc(CNCc2ccco2)ccc1OCc1ccccc1 | – | 35.5 µM [rising, partial curve]
COc1ccccc1Nc1nc(N)nc(CN2CCC(C)CC2)n1 | – | 8.91 µM [falling, partial curve, poor fit]
Cc1ccc(C)c(S(=O)(=O)Nc2cc(SCC(=O)O)c(O)c3ccccc23)c1 | 25.1 µM [falling, single point] | 35.5 µM [falling, single point]
CC(/C=C/c1ccc(N(C)C)cc1)=N\N=C1\NC(=O)CC(C(=O)Nc2ccccc2)S1 (stereo not drawn) | 4.47 µM [rising, partial curve] | –

Exported as labelled records: two of the compounds above
COc1cc(C)ccc1OCCOCCOc1ccc(C)cc1[N+](=O)[O-]
  AC50 [1]: 3.98 µM [rising, full curve, poor fit]
N#C/C(=C\c1ccco1)c1nc2ccccc2s1
  AC50 [1]: 22.4 µM [rising, single point]
